From the supplement of paper PMC4862054
Most entries show no effect beyond the scatter of the controls.

Experiments:
Experiment in all cases: normalised response (% of control), CellTox Green; higher = less cell death (100 = DMSO, 0 = benzethonium chloride kill control)
Conditions in all cases: incubation time: 72 h
[1] = tested on: DU-4475
Method: (§1)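 DSRT, 72 h incubation, CellTox Green / CellTiter-Glo readout. Signal is normalised to DMSO and benzethonium chloride controls. Value is the normalised response at dose 2.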

[2] = tested on: HCC1599
Method: as §1

[3] = tested on: HCC1937
Method: as §1

[4] = tested on: CAL-148
Method: as §1

[5] = tested on: CAL-85-1
Method: as §1

[6] = tested on: MDA-MB-231
Method: as §1

[7] = tested on: CAL-51
Method: as §1

[8] = tested on: CAL-120
Method: as §1

[9] = tested on: MDA-MB-436
Method: as §1

[10] = tested on: BT-549
Method: as §1

[11] = tested on: MDA-MB-453
Method: as §1

[12] = tested on: HCC1143
Method: as §1

[13] = tested on: MDA-MB-468
Method: as §1

[14] = tested on: Hs578T
Method: as §1

[15] = tested on: BT-474
Method: as §1

[16] = tested on: HDQ-P1
Method: as §1

[17] = tested on: MCF-10A
Method: as §1

[18] = tested on: MFM-223
Method: as §1

[19] = tested on: DU-4475; remark: listed apart in the source
Method: (§2)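 DSRT, 72 h incubation, CellTox Green / CellTiter-Glo readout. Signal is normalised to DMSO and benzethonium chloride controls. Value is the normalised response at the lowest tested concentration.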

[20] = tested on: HCC1599; remark: listed apart in the source
Method: as §2

[21] = tested on: HCC1937; remark: listed apart in the source
Method: as §2

[22] = tested on: CAL-148; remark: listed apart in the source
Method: as §2

[23] = tested on: CAL-85-1; remark: listed apart in the source
Method: as §2

[24] = tested on: MDA-MB-231; remark: listed apart in the source
Method: as §2

[25] = tested on: CAL-51; remark: listed apart in the source
Method: as §2

[26] = tested on: CAL-120; remark: listed apart in the source
Method: as §2

[27] = tested on: BT-549; remark: listed apart in the source
Method: as §2

[28] = tested on: MDA-MB-453; remark: listed apart in the source
Method: as §2

[29] = tested on: HCC1143; remark: listed apart in the source
Method: as §2

[30] = tested on: MDA-MB-468; remark: listed apart in the source
Method: as §2

[31] = tested on: BT-474; remark: listed apart in the source
Method: as §2

[32] = tested on: HDQ-P1; remark: listed apart in the source
Method: as §2

[33] = tested on: MCF-10A; remark: listed apart in the source
Method: as §2

[34] = tested on: MFM-223; remark: listed apart in the source
Method: as §2

SMILES: COc1cc2c(Oc3ccc4[nH]c(C)cc4c3F)ncnc2cc1OCCCN1CCCC1 [Cediranib] (1 nM)
- normalised response [1]: 109%
- normalised response [2]: 118%
- normalised response [3]: 113%
- normalised response [4]: 103%
- normalised response [5]: 96.2%
- normalised response [6]: 97.8%
- normalised response [7]: 115%
- normalised response [8]: 98.2%
- normalised response [9]: 79.8%
- normalised response [10]: 68.4%
- normalised response [11]: 105%
- normalised response [12]: 111%
- normalised response [13]: 58.8%
- normalised response [14]: 116%
- normalised response [15]: 101%
- normalised response [16]: 125%
- normalised response [17]: 99.6%
- normalised response [18]: 97.5%

SMILES: CO[C@H]1C[C@@H]2CC[C@@H](C)[C@@](O)(O2)C(=O)C(=O)N2CCCC[C@H]2C(=O)O[C@H]([C@H](C)C[C@@H]2CC[C@@H](OC(=O)C(C)(CO)CO)[C@H](OC)C2)CC(=O)[C@H](C)/C=C(\C)[C@@H](O)[C@@H](OC)C(=O)[C@H](C)C[C@H](C)/C=C/C=C/C=C/1C [Temsirolimus] (0.01 nM)
- normalised response [19]: 98.4%
- normalised response [20]: 92.3%
- normalised response [21]: 111%
- normalised response [22]: 105%
- normalised response [23]: 103%
- normalised response [24]: 104%
- normalised response [25]: 118%
- normalised response [26]: 99.5%
- normalised response [27]: 92%
- normalised response [28]: 109%
- normalised response [29]: 111%
- normalised response [30]: 102%
- normalised response [31]: 102%
- normalised response [32]: 99%
- normalised response [33]: 103%
- normalised response [34]: 103%

SMILES: CO[C@@H](C(=O)N1Cc2[nH]nc(NC(=O)c3ccc(N4CCN(C)CC4)cc3)c2C1)c1ccccc1 [Danusertib] (10 nM)
- normalised response [1]: 107%
- normalised response [2]: 113%
- normalised response [3]: 96.8%
- normalised response [4]: 88.8%
- normalised response [5]: 95.6%
- normalised response [6]: 97.4%
- normalised response [7]: 75.5%
- normalised response [8]: 104%
- normalised response [9]: 114%
- normalised response [10]: 102%
- normalised response [11]: 104%
- normalised response [12]: 110%
- normalised response [13]: 79.5%
- normalised response [14]: 51.6%
- normalised response [15]: 96.6%
- normalised response [16]: 114%
- normalised response [17]: 111%
- normalised response [18]: 100%

SMILES: CC1(C)CNc2cc(NC(=O)c3cccnc3NCc3ccncc3)ccc21 [Motesanib] (10 nM)
- normalised response [1]: 101%
- normalised response [2]: 102%
- normalised response [3]: 74.1%
- normalised response [4]: 64.2%
- normalised response [5]: 94.5%
- normalised response [6]: 105%
- normalised response [7]: 102%
- normalised response [8]: 98.4%
- normalised response [9]: 77%
- normalised response [10]: 95.9%
- normalised response [11]: 96.3%
- normalised response [12]: 109%
- normalised response [13]: 79%
- normalised response [14]: 94%
- normalised response [15]: 100%
- normalised response [16]: 97.2%
- normalised response [17]: 99.7%
- normalised response [18]: 98.9%
